These are yes or no findings as the source states them, for the method shown. For some of these results: In cells and extracts the contact can be indirect. Some binding calls cover weakened binding; strength is not graded here. Tags and fused reporters may be left off the sequences shown.

From patent US20190276499A1, “Protein VII Fragments and Methods of Use Thereof for the Treatment of Inflammatory Disorders” (priority 2016, published 2019) come the findings set out here.

Experiment [1] concerns the target HMGB1-GST (Abnova) (UniProt P09429). Nature of the experiment: in vitro pull-down on cobalt resin, coomassie-stained SDS-PAGE.
In experiment [2] the target is recombinant GST construct encoding full-length HMGB1 (UniProt P09429). Nature of the experiment: in vitro GST pull down, coomassie SDS-PAGE and western blot for GST or His. (In general: Immunoblotting shows a protein as a band on a membrane.)
Experiment [3] has as its target T1, recombinant GST construct encoding the HMGB1 C-terminus (UniProt P09429).
T1 sequence: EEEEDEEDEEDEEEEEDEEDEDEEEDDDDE
The description is as above.

Experiment [4] has as its target T1, recombinant GST construct encoding the HMGB1 C-terminus. The experiment can be described thus: in vitro GST pull down.
Experiment [5] concerns the target HMGB1 (endogenous, in A549 cells) (UniProt P09429). Nature of the experiment: HA-bead immunoprecipitation from induced A549 cells, western blot.
The target is the same in experiment [6]. The experiment can be described thus: co-immunoprecipitation from A549 cells, western blot.
Experiment [7] has the same target. Nature of the experiment: GFP immunoprecipitation from transfected A549 cells.

B1: recombinant protein VII-His (protein)
chain: AKKRSDQHPVRVRGHYRAPWGAHKRGRTGRTTVDDAIDAVVEEARNYTPTPPPVSTVDAAIQTVVRGARRYAKMKRRRRRVARRHRRRPGTAAQRAAAALLNRARRTGRRAAMRAARRLAAGIVTVPPRSRRRAAAAAAAAISAMTQGRRGNVYWVRDSVSGLRVPVRTRPPRN
As for B1, the binding result in experiment [1], in experiment [2], in experiment [3] and in experiment [4] was “binds” each time.

B2: protein VII-HA from human adenovirus serotype 5 (protein)
chain: B1 chain
With B2, the binding entry in experiment [5] and in experiment [6] was “binds” throughout.

B3: full-length Ad5 protein VII tagged with GFP (protein)
chain: B1 chain
Turning to B3, in experiment [7], the binding result was “binds”.
